Source: PMC3547912
Results are given in words; binding and its absence hold for the method and conditions named. In cells and extracts the contact can be indirect. Some entries that bind do so weakly or less than the wild type. Tags and fused reporters may be left off the sequences shown.

How the values were obtained:
Blt1-3Flag (S. pombe) [1] = target: T1, Blt1-3Flag (S. pombe) (UniProt O74338); assay: co-IP; as a1, whole cell extracts of nod1Δ cells; increasing amounts of extract loaded (1x, 2x, 4x)
T1 sequence: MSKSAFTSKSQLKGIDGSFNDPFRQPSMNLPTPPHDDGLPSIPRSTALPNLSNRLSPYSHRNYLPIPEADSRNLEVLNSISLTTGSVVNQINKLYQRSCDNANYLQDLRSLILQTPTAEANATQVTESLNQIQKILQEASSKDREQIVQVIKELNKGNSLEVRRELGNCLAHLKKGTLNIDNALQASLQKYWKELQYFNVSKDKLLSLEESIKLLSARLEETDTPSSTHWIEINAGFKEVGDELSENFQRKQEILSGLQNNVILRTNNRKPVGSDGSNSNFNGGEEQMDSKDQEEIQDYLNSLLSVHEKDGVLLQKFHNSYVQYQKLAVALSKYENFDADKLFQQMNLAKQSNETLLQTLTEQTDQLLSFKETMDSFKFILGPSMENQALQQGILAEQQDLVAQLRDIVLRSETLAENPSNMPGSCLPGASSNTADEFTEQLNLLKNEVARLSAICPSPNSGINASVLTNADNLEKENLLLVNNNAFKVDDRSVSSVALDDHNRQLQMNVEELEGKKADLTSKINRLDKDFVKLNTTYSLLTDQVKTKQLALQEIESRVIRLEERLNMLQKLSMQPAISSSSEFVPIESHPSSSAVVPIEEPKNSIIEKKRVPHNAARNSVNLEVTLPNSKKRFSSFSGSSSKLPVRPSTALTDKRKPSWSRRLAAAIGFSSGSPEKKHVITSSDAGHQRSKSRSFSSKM

Blt1-3Flag (S. pombe) [2] = target: T1, Blt1-3Flag (S. pombe); assay: co-IP; reciprocal co-IPs from whole cell extracts (0.5-4 mg) of asynchronous S. pombe, protein-A Dynabeads with anti-3PK, anti-Flag or anti-GFP, 2 h at 4°C; wild-type cells (the Nod1-Gef2 pair also in blt1Δ cells)

- binding (Blt1-3Flag (S. pombe) [1]): no binding (condition: in nod1Δ cells)
- binding (Blt1-3Flag (S. pombe) [2]): binds
B1: Gef2-3GFP (protein, UniProt Q09733 1-1101)
chain: MDVGTMGSRAELLAISIQFGGLWVFRDLLQMNPLFEQDHVFCTFNHPNMGLVLISFAKVDGHILAAYALSKLGPDTFSICYPFSSKLDAFAQTLDLEWQIASMHKEAAACVYEFLCVESVCLHTGENWRESVIEPEYASYIFDTINVFQSSSLTRELYSLGEPNGVREFVVDAIFDIKVDNSWWEDPSNSYWKTVIGSREMFEDSRKKTSSPSPSFASSKDAGTIPAIQKKKSLLIEMMETESTYVERLRHLVNDYALPLRDLAKSSKKLLGLYELNTLFPPCLNKLIQLNSAFLDEFEAIMSDLNFEDIDEKKFEEIDLRLACCFESHFFAFSQHYPRYLEQSNDFGNVLKMASKIPKFVEFHDQVKLNANMNVGLSQLIMEPVQRIPRYSLFLDQIILLTQEGECQHTYVRSVEIIKNIAEMPTVDAEERSRIFAGLQHIIPDLAPNMISNSRNFIDCIDVTREFLKNGQLHLIPYTLILFNDRICLVQRRSKSSIASTILDLRKQNPRNSYSKEKRAQYIGSNMNEAVELTRSMVEENTIFLISKYASSPSFFNEYPILKFRCDFENVRTMDRFYQSFQKALSMNKSQPSCLSFSKLNDFVVFFNNYSRFEYEKESKRSDIVCICTNDANVDKHKFLQDGNIVITFFQQDEDFHLSFDSWLGVSLPTEAVIAKEDLREACLNYLINIKRLLLCPFSNRNFSSLDLYSNLIQHLLSANSSPRKSRLSFGGRPGSPSKISLSLNRFYNQGGLSKSCATLPSQMYNLDHNNISQKSLKFNTHNTSKASAEKTVEHLEAFKGGFKYHTDLKNLLYPLSEKEKIEGDELYDNILKETFNEELLSHYPPNIIYATFQKYLSSFINRKFGVLLSSSFIQQLNTVENLNLSFNSTDAVYHLKKILQDLPESSLKILENIFSIASDLLLRLPLKDQCDFVTKQLAIALAPSMFGSNAVELVYYLAYHSDRIFGTVEELPTPVSPANSNNDKQLDESKFQAIAMKEMPERHPKEILPGQIEREAYEDLRRKYHLTLARLAQMTRLNEDSKKSIPLLYDRFNHDLKLIKQSVQASLIRKQCELDTAKWTLEEYESKLNAKEGCQTNIFI
